## Screening data

Data taken from PubChem BioAssay AID504749, deposited by NCATS (2011).

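A panel of P. falciparum strains inside erythrocytes is exposed to compounds for three days, then a DNA-binding dye reports the amount of parasite DNA.
Each compound was titrated across a series from about 0.000037 to 29 µM.
The number is the fitted AC50, the concentration giving a half-maximal change in signal; a lower value means higher potency, whether the curve shows a decrease or an increase.
Calls follow the curve class and fit quality: every row here is inconclusive, covering signal-raising curves and weak, poorly fitted, partial or highest-dose-only inhibition curves.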

Values are in µM.
Every entry below has the call inconclusive.
Only part of the assay is shown, chiefly results filed as inconclusive.
A potency from a partial, single-point or poor curve is only a rough figure.
Some entries filed as inconclusive have a full curve.

| # | SMILES | setting | potency (µM) | curve |
|---|---|---|---|---|
| 1 | `CNc1cc(OC)c(C(=O)N[C@@H]2CCN(Cc3ccccc3)[C@H]2C)cc1Cl` | CP325 | 15.1 | inhibitor, single point |
| 2 | `CNc1cc(OC)c(C(=O)N[C@@H]2CCN(Cc3ccccc3)[C@H]2C)cc1Cl` | CP203 | 21.33 | inhibitor, single point |
| 3 | `CNc1cc(OC)c(C(=O)N[C@@H]2CCN(Cc3ccccc3)[C@H]2C)cc1Cl` | CP191 | 14.13 | inhibitor, partial curve |
| 4 | `CNc1cc(OC)c(C(=O)N[C@@H]2CCN(Cc3ccccc3)[C@H]2C)cc1Cl` | DIV17 | 13.46 | inhibitor, partial curve |
| 5 | `CNc1cc(OC)c(C(=O)N[C@@H]2CCN(Cc3ccccc3)[C@H]2C)cc1Cl` | CP238 | 11.22 | inhibitor, single point |
| 6 | `CNc1cc(OC)c(C(=O)N[C@@H]2CCN(Cc3ccccc3)[C@H]2C)cc1Cl` | CP315 | 15.1 | inhibitor, single point |
| 7 | `CNc1cc(OC)c(C(=O)N[C@@H]2CCN(Cc3ccccc3)[C@H]2C)cc1Cl` | CP185 | 8.912 | inhibitor, partial curve |
| 8 | `CNc1cc(OC)c(C(=O)N[C@@H]2CCN(Cc3ccccc3)[C@H]2C)cc1Cl` | 3D7 | 14.13 | inhibitor, single point |
| 9 | `CNc1cc(OC)c(C(=O)N[C@@H]2CCN(Cc3ccccc3)[C@H]2C)cc1Cl` | CP268 | 16.94 | inhibitor, single point |
| 10 | `CNc1cc(OC)c(C(=O)N[C@@H]2CCN(Cc3ccccc3)[C@H]2C)cc1Cl` | CP329 | 16.94 | inhibitor, single point |
| 11 | `CNc1cc(OC)c(C(=O)N[C@@H]2CCN(Cc3ccccc3)[C@H]2C)cc1Cl` | CP217 | 10 | inhibitor, partial curve |
| 12 | `CNc1cc(OC)c(C(=O)N[C@@H]2CCN(Cc3ccccc3)[C@H]2C)cc1Cl` | FAB9 | 0.1122 | inhibitor, full curve |
| 13 | `O=c1[nH]cnc2c1ncn2[C@H]1CC[C@@H](CO)O1` | CP191 | 14.13 | inhibitor, single point |
| 14 | `O=c1[nH]cnc2c1ncn2[C@H]1CC[C@@H](CO)O1` | TAB113 | 10 | inhibitor, single point |
| 15 | `O=c1[nH]cnc2c1ncn2[C@H]1CC[C@@H](CO)O1` | TAB165 | 14.13 | inhibitor, single point |
| 16 | `O=c1[nH]cnc2c1ncn2[C@H]1CC[C@@H](CO)O1` | GB4 | 19.01 | inhibitor, single point |
| 17 | `O=c1[nH]cnc2c1ncn2[C@H]1CC[C@@H](CO)O1` | P93_24 | 17.78 | inhibitor, single point |
| 18 | `O=c1[nH]cnc2c1ncn2[C@H]1CC[C@@H](CO)O1` | HB3 | 17.78 | inhibitor, single point |
| 19 | `O=c1[nH]cnc2c1ncn2[C@H]1CC[C@@H](CO)O1` | CP265 | 17.78 | inhibitor, single point |
| 20 | `O=c1[nH]cnc2c1ncn2[C@H]1CC[C@@H](CO)O1` | DIV17 | 19.01 | inhibitor, single point |
| 21 | `O=c1[nH]cnc2c1ncn2[C@H]1CC[C@@H](CO)O1` | CP260 | 17.78 | inhibitor, single point |
| 22 | `CC(c1cc2ccccc2s1)N(O)C(N)=O` (centres undefined) | CP315 | 3.013 | inhibitor, single point |
| 23 | `CC(c1cc2ccccc2s1)N(O)C(N)=O` (centres undefined) | CP215 | 19.01 | inhibitor, single point |
| 24 | `CC(c1cc2ccccc2s1)N(O)C(N)=O` (centres undefined) | AS120 | 3.548 | inhibitor, single point |
| 25 | `CC(c1cc2ccccc2s1)N(O)C(N)=O` (centres undefined) | PC26 | 21.33 | inhibitor, partial curve, poor fit |
| 26 | `CC(C)C1CCC(C(=O)NC(Cc2ccccc2)C(=O)O)CC1` (centres undefined) | CP266 | 0.6012 | inhibitor, full curve, poor fit |
| 27 | `CC(C)C1CCC(C(=O)NC(Cc2ccccc2)C(=O)O)CC1` (centres undefined) | CP250 | 0.1778 | inhibitor, partial curve, poor fit |
| 28 | `CC(C)C1CCC(C(=O)NC(Cc2ccccc2)C(=O)O)CC1` (centres undefined) | P94_40 | 12.59 | inhibitor, single point |
| 29 | `Cc1c(C(=O)NN2CCCCC2)nn(-c2ccc(Cl)cc2Cl)c1-c1ccc(Cl)cc1` | CP315 | 15.1 | inhibitor, single point |
| 30 | `Cc1c(C(=O)NN2CCCCC2)nn(-c2ccc(Cl)cc2Cl)c1-c1ccc(Cl)cc1` | AA1029 | 11.22 | inhibitor, single point |
| 31 | `Cc1c(C(=O)NN2CCCCC2)nn(-c2ccc(Cl)cc2Cl)c1-c1ccc(Cl)cc1` | ATS95 | 10 | inhibitor, single point |
| 32 | `Cc1c(C(=O)NN2CCCCC2)nn(-c2ccc(Cl)cc2Cl)c1-c1ccc(Cl)cc1` | CP335 | 15.1 | inhibitor, single point |
| 33 | `Cc1c(C(=O)NN2CCCCC2)nn(-c2ccc(Cl)cc2Cl)c1-c1ccc(Cl)cc1` | C2A | 17.78 | inhibitor, single point |
| 34 | `Cc1c(C(=O)NN2CCCCC2)nn(-c2ccc(Cl)cc2Cl)c1-c1ccc(Cl)cc1` | CP252 | 17.78 | inhibitor, single point |
| 35 | `Cc1c(C(=O)NN2CCCCC2)nn(-c2ccc(Cl)cc2Cl)c1-c1ccc(Cl)cc1` | CP291 | 19.01 | inhibitor, single point |
| 36 | `Cc1c(C(=O)NN2CCCCC2)nn(-c2ccc(Cl)cc2Cl)c1-c1ccc(Cl)cc1` | Dd2 | 17.78 | inhibitor, single point |
| 37 | `Cc1c(C(=O)NN2CCCCC2)nn(-c2ccc(Cl)cc2Cl)c1-c1ccc(Cl)cc1` | CP238 | 11.22 | inhibitor, single point |

Some entries from above, unchanged:

With CC(C)C1CCC(C(=O)NC(Cc2ccccc2)C(=O)O)CC1 (centres undefined) [CP266] the assay gave potency 0.6012 µM (inhibitor, full curve, poor fit).
With CNc1cc(OC)c(C(=O)N[C@@H]2CCN(Cc3ccccc3)[C@H]2C)cc1Cl [CP315] the assay gave potency 15.1 µM (inhibitor, single point).
With O=c1[nH]cnc2c1ncn2[C@H]1CC[C@@H](CO)O1 [TAB165] the assay gave potency 14.13 µM (inhibitor, single point).
With CC(C)C1CCC(C(=O)NC(Cc2ccccc2)C(=O)O)CC1 (centres undefined) [P94_40] the assay gave potency 12.59 µM (inhibitor, single point).